In assay [1] the target is ZDHHC5, endogenous in mouse hippocampus (mouse (endogenous in hippocampus)) (UniProt Q8VDZ4). Put plainly: co-IP; lysate of mouse hippocampus, precipitation with ZDHHC5 antibody, Syn1 detected.
Assay [2] concerns the target Synapsin1 triple-cysteine mutant Syn1-3CA, expressed in HEK-293T cells for co-immunoprecipitation with ZDHHC5 (mouse) (UniProt O88935). The experiment in a line: co-IP; Syn1-WT or Syn1-3CA coexpressed with or without ZDHHC5 in HEK-293T cells; which protein was precipitated is not told.
Assay [3] has as its target Synapsin1 wild type, expressed in HEK-293T cells for co-immunoprecipitation with ZDHHC5 (mouse) (UniProt O88935). The assay is described as above.

Protein sequences, listed by entry. Tags and fused reporters are not part of them.
UniProt Q8VDZ4: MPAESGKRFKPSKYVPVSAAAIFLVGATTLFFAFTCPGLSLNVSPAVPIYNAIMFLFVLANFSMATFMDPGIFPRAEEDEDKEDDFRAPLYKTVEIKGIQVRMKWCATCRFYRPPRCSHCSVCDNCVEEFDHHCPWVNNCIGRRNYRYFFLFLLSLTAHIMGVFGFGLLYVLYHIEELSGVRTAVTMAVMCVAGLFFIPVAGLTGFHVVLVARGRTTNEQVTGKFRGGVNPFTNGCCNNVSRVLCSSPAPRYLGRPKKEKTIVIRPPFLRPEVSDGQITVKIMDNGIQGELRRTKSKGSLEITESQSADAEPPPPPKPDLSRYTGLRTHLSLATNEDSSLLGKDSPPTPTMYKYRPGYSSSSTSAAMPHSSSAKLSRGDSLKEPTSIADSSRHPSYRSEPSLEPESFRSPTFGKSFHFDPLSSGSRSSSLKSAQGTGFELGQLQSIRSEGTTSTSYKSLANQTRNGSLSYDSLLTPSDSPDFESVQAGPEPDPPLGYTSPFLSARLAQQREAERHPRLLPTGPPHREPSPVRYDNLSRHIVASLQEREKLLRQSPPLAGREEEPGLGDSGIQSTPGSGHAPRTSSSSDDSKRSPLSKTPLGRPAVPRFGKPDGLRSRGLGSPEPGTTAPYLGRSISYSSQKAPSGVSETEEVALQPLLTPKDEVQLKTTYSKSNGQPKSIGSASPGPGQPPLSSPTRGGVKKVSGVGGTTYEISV

No constants are given. Whether binding was seen depends on the method and setting. In cells and extracts the contact can be indirect. Some binding calls cover weakened binding; strength is not graded here.

With “Synapsin1, endogenous in mouse hippocampus (from UniProt O88935 1-706)”, the binding result in assay [1] was “binds”.

As for “ZDHHC5, expressed in HEK-293T cells (from UniProt Q8VDZ4 1-715) (enzyme)”, the binding result in assay [2] and in assay [3] was “binds” each time.
